Data published in article doi:10.1101/2021.01.01.425030.
For at least one entry, the source does not settle the construct or the ends of the probe. Results from cells or extracts need not show a direct contact.

Protein sequences, listed by entry. Tags and fused reporters are not part of them.
UniProt Q15717, whole entry: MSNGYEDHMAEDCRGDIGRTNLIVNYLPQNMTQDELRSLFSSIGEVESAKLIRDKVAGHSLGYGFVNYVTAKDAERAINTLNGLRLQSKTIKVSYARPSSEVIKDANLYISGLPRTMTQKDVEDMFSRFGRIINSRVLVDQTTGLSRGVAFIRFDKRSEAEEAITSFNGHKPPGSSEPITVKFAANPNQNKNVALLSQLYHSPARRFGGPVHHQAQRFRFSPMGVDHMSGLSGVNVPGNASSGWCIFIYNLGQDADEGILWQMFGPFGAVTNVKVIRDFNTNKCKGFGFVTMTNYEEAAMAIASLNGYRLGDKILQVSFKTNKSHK

Biological target: mCherry-HuR (UniProt Q15717)
Experiment: RP-CONA on-bead pull-down, confocal imaging
Details: HuR KO HEK293T lysate; protein in a lysate after overexpression

Question: Does “UGUUGUUUUUAGAUAACUAAAUCGACAACAAA [FITC-pri-miR-7-CTL-biotin]” bind?
Answer: binds
